Results on 38 targets are retold here after the supplement of paper PMC6411743.

Amino acid sequences for entries named in this document (tags omitted). A change or cut given only in a name is not applied to a line headed by its entry.
UniProt P20645: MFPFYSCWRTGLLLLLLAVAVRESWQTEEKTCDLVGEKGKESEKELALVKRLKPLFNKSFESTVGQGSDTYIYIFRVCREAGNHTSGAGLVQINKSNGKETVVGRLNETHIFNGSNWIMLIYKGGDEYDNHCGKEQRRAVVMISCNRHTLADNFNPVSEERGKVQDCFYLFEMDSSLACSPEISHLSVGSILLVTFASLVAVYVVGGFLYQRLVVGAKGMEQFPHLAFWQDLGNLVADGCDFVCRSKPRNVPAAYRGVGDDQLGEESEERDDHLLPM
UniProt P17483: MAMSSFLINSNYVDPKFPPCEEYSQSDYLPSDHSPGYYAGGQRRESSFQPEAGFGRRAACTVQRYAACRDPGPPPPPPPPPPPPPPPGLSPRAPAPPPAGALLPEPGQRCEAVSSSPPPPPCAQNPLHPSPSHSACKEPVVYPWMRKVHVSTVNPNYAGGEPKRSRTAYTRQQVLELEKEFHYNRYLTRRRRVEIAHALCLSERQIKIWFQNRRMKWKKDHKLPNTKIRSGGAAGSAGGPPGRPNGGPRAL
UniProt P17029: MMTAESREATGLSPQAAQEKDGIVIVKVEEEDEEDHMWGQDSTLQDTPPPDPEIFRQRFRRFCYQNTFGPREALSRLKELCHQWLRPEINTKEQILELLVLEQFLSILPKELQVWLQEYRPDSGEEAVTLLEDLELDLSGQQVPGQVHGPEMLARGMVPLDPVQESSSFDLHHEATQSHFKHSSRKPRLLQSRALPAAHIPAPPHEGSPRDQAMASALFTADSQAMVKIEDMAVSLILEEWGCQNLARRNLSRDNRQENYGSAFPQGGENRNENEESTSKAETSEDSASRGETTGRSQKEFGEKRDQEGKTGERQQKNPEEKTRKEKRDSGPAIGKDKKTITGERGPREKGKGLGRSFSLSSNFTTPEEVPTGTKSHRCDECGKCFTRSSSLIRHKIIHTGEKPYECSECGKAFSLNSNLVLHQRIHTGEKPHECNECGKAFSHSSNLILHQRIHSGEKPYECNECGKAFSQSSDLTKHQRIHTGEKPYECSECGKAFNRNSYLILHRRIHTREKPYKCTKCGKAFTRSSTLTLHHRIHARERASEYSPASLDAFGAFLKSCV
UniProt P31749: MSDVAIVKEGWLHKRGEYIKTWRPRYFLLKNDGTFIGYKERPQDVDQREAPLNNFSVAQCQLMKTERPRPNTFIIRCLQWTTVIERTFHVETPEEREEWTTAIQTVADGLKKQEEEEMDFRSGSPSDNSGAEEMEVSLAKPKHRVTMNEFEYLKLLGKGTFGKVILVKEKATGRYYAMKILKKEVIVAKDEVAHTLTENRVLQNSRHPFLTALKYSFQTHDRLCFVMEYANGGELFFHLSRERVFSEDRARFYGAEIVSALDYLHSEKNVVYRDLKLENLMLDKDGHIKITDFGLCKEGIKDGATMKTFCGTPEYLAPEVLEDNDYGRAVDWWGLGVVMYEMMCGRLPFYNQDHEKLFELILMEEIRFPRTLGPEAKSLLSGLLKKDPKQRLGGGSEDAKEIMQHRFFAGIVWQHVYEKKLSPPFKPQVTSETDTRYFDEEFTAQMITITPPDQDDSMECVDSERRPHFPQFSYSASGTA
UniProt P34897: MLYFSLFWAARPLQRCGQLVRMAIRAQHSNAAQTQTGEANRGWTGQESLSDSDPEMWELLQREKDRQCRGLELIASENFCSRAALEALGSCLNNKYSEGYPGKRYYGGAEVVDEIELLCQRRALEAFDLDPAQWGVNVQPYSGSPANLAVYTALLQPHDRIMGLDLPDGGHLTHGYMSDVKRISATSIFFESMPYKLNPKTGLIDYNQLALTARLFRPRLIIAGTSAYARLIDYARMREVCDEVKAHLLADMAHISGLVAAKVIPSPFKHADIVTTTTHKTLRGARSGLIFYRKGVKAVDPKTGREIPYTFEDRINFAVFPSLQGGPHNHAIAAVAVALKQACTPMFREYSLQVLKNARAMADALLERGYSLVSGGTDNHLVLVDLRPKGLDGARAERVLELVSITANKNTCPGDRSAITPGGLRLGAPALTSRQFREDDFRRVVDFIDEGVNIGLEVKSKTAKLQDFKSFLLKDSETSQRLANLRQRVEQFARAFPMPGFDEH
UniProt P21399: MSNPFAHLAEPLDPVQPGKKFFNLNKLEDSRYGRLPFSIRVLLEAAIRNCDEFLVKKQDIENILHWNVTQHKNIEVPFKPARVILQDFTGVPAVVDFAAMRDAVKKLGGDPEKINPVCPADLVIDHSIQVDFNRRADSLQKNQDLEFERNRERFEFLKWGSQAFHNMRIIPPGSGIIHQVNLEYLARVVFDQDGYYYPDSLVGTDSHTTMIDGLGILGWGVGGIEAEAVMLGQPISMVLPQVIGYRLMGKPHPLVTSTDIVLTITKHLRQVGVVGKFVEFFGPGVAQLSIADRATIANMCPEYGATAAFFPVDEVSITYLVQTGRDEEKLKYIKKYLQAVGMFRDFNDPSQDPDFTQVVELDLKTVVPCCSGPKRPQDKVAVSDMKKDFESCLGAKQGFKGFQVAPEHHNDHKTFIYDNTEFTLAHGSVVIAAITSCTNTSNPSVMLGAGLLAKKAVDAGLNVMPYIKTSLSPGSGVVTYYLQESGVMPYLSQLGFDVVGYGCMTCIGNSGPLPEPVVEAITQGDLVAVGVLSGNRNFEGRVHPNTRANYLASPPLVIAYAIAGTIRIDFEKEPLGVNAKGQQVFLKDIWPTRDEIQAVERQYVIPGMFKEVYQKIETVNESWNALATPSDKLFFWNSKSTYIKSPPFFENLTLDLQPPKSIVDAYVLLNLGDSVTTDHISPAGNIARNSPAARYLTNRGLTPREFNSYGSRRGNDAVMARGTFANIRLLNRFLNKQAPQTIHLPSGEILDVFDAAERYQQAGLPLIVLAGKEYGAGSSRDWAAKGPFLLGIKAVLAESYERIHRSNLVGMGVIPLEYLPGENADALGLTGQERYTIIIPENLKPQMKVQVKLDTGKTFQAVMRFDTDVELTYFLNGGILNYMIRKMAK
UniProt P17174: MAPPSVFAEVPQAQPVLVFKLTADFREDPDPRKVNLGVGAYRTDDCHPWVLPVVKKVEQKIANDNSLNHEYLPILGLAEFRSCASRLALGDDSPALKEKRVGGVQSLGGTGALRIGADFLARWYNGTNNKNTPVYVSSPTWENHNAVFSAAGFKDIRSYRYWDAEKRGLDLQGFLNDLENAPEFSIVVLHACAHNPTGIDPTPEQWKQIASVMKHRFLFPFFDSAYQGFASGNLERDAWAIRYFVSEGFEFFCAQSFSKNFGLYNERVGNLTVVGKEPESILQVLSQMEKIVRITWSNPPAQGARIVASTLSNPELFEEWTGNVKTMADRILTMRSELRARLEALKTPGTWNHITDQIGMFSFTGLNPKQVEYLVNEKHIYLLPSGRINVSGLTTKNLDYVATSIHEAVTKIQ
UniProt P32019: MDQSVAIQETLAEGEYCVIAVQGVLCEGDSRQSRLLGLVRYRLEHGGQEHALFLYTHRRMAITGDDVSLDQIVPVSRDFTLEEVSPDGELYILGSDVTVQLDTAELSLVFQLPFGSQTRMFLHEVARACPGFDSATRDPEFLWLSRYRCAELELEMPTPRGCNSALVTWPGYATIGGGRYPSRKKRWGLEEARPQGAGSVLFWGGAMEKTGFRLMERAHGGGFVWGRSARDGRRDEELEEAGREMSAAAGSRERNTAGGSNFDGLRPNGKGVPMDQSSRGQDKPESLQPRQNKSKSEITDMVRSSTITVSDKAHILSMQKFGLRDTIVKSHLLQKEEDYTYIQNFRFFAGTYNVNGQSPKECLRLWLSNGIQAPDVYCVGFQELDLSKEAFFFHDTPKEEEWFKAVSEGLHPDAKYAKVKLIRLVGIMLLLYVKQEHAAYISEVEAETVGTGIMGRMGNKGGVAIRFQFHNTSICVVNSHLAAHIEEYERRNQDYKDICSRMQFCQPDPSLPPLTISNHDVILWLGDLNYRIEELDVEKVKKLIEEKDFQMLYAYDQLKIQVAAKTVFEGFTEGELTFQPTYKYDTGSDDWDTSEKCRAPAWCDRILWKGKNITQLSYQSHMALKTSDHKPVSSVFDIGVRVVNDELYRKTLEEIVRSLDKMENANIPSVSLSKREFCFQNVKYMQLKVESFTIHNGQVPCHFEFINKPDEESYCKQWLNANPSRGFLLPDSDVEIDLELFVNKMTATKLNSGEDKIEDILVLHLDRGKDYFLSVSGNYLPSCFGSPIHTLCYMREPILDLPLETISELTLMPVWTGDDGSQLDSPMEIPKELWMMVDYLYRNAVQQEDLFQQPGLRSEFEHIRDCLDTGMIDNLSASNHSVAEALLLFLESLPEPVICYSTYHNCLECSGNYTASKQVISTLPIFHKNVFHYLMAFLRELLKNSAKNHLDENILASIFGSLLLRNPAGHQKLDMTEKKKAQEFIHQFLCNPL
UniProt P19532: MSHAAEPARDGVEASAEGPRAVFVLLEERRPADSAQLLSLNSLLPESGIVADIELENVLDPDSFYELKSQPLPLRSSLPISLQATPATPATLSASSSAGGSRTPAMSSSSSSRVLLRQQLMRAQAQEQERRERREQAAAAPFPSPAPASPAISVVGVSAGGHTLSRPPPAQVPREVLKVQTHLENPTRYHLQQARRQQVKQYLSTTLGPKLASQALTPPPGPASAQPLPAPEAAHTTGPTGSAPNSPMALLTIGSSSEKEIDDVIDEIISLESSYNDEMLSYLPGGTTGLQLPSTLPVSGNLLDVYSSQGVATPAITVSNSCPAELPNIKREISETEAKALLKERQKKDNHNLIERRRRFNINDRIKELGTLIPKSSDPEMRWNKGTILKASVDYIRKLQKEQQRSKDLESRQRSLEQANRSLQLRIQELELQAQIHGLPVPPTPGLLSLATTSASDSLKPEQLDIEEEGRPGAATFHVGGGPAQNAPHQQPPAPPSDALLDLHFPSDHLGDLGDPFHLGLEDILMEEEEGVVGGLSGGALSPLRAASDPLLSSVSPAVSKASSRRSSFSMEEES
UniProt P17568, whole entry: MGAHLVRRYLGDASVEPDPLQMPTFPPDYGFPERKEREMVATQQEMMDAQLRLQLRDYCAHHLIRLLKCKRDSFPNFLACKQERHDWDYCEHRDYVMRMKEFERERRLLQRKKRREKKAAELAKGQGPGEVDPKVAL
UniProt P31150: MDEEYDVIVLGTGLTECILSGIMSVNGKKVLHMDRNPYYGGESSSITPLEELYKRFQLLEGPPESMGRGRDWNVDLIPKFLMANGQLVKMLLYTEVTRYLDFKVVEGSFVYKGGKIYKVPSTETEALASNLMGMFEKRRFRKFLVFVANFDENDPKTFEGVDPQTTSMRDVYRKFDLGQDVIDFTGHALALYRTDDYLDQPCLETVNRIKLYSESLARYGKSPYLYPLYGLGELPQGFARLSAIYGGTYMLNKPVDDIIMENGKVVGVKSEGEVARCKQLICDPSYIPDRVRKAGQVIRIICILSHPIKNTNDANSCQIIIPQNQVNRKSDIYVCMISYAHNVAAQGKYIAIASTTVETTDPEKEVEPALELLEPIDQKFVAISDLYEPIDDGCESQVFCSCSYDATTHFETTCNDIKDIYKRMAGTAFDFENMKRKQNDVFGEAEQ
UniProt P22626: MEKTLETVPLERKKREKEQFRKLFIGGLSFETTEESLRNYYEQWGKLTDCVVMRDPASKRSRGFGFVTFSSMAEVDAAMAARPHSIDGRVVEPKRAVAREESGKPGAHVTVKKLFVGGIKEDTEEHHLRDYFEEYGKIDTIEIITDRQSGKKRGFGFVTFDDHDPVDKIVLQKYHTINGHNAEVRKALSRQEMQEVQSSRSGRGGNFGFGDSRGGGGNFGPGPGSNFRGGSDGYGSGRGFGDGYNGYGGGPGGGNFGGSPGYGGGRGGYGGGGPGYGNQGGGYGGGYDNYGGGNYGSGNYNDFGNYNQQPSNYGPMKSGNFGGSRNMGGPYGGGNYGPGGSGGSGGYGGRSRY
UniProt P21283, whole entry: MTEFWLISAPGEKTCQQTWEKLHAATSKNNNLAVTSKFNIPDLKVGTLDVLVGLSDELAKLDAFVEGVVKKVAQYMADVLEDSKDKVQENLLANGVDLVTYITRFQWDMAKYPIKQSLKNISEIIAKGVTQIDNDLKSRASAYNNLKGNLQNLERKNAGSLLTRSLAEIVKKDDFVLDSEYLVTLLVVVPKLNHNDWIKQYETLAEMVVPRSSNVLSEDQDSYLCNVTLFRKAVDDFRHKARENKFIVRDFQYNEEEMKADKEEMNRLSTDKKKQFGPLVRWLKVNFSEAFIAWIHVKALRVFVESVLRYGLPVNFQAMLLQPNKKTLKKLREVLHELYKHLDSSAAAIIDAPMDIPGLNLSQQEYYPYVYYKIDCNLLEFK
UniProt P21964: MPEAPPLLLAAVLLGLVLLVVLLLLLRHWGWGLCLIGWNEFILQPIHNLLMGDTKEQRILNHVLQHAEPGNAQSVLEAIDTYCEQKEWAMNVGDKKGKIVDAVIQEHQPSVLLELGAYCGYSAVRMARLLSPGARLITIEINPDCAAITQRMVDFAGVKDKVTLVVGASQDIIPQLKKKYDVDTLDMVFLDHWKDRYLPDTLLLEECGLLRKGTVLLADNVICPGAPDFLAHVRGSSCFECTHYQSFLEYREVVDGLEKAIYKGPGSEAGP

± gives the standard deviation of the averaged measurements. The entries are a selection whose mix differs from that of the whole data set.

Compound in this assay: Nc1ncnc2c1ncn2[C@@H]1O[C@H](COP(=O)(O)OP(=O)(O)OP(=O)(O)O)[C@@H](O)[C@H]1O [adenosine triphosphate]
As to the kind of experiment: NP40-soluble protein abundance relative to vehicle (solubility fold change) (ratio); higher = more soluble protein in presence of ATP. The note with it: concentration: 10mM. A digest of the protocol:
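Eight concentrations, 0.1 to 10 mM, were tested on Jurkat crude lysate for 10 min at room temperature and then 3 min at 37 °C, in three independent experiments. The lysate was solubilised with 0.8% NP40 and benzonase, ultracentrifuged, and the supernatant TMT-labelled for LC-MS/MS. Each value is the fold change against the detergent-processed vehicle in its own replicate, from vsn-normalised intensities.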
In the case of P30042 (UniProt P0DPI2), the NP40-soluble protein abundance turned out to be 0.938 ± 0.016.
The value for M6PR (UniProt P20645) was 0.878 ± 0.044; that for HOXB4 (UniProt P17483) was 0.897 ± 0.019; that for UniProt P32519 and related entries was 0.925 ± 0.028.
Under ATP6V1B2 (UniProt P21281) stands 0.982 ± 0.03; under UniProt P32780 and related entries, 1.12 ± 0.035; under UniProt P31327 and related entries, 1 ± 0.061.
Regarding UniProt P23396 and related entries, the NP40-soluble protein abundance came out at 0.742 ± 0.081.
The value for ZKSCAN1 (UniProt P17029) was 0.952 ± 0.13; that for UniProt P22314 and related entries was 0.948 ± 0.052; that for ABCD3 (UniProt P28288) was 1.06 ± 0.073.
The value for UniProt P18433 and related entries was 1.01 ± 0.12.
The value for AKT1 (UniProt P31749) was 1 ± 0.05; that for UniProt P33981 and related entries was 1.08 ± 0.039; that for UniProt P34897 and related entries was 0.974 ± 0.047.
Turning to UniProt P31948 and related entries, the NP40-soluble protein abundance amounted to 0.823 ± 0.047.
The value for ACO1 (UniProt P21399) was 0.961 ± 0.054; that for GOT1 (UniProt P17174) was 0.919 ± 0.033; that for IGFBP2 (UniProt P18065) was 0.988 ± 0.033.
The value for CBL (UniProt P22681) was 0.976 ± 0.012; that for UniProt P17010 and related entries was 1.08 ± 0.078; that for UniProt P33316 and related entries was 0.944 ± 0.018.
As for RFX1 (UniProt P22670), the NP40-soluble protein abundance is 0.993 ± 0.02.
Under UniProt P19793 and related entries stands 0.978 ± 0.17.
Turning to UniProt P32019 and related entries, the NP40-soluble protein abundance was found to be 0.941 ± 0.047.
Under TFE3 (UniProt P19532) stands 0.908 ± 0.1.
The value for UniProt P18858 and related entries was 0.947 ± 0.03; that for NDUFB7 (UniProt P17568) was 0.903 ± 0.14.
Under GDI1 (UniProt P31150) stands 1 ± 0.064; under NMT1 (UniProt P30419), 1.09 ± 0.026.
For HNRNPA2B1 (UniProt P22626), the NP40-soluble protein abundance was 1.22 ± 0.22.
The value for ERCC2 (UniProt P18074) was 1.09 ± 0.019; that for PRKAR1B (UniProt P31321) was 1.03 ± 0.025.
The value for ATP6V1C1 (UniProt P21283) was 0.96 ± 0.029.
In the case of “UniProt P21333-2|P21333 and related entries”, the NP40-soluble protein abundance stood at 0.92 ± 0.045.
The value for DDX5 (UniProt P17844) was 1.65 ± 0.39; that for UniProt P17041 was 0.903 ± 0.04; that for UniProt P21964 and related entries was 0.937 ± 0.027.
